# According to patent publication US20230241121A1, “COMPOSITIONS AND METHODS RELATING TO EXOSOMES DERIVED FROM HUMAN DERMAL PAPILLA CELLS” (NORTH CAROLINA STATE UNIVERSITY, priority 2020, published 2023):
# At least one structure is not confirmed: it was looked up by name or label, or the drawing left a doubt.
# Tests used:
# CD133 = assay: Immunostaining of CD133 in dorsal skin hair follicles ten days after treatment; format: in vivo, C57BL/6 mice; details: day 10; minoxidil: both sides; DP spheroids: compared to the DPs group
# depilated C57BL/6 mice = assay: Dorsal hair regrowth in depilated mice; format: in vivo; details: day 10, morphological observation
# Text: Animals and in vivo studies. Seven-week-old male C57BL/6 mice were purchased from Jackson laboratory and allowed to adapt to their new environment for 1 week. Hair was removed by using depilatory cream to observe the pink skin. Then, animals were randomly divided into groups (n=5) randomly to investigate hair regrowth. Minoxidil was topically applied daily as a positive control. Other treatments were given subcutaneously. All work with mice was in accordance with IACUC. Cell treatment dose: 1.0×10^6 cells in 200 μL PBS were subcutaneously injected into 10 spots (20 μL per site) on the left side of the dorsal skin. Exosome treatment dose: 2.0×10^9 exosomes in 200 μL PBS were subcutaneously injected to 10 spots (20 μL per site) on the left side of the backs. Negative control, miR-218-5p mimics and inhibitors (Sigma-Aldrich): administered according to the protocol provided by in vivo-jetPEI™ (Polyplus transfection). In brief, mice received ten injections per depilated dorsal skin. 400 ng miRNA mimic or inhibitor was dissolved in 90 μl 5% glucose (w/v) solution, and then 10 μl in vivo-jet PEI solution was added. Vortex-mix the solution immediately and incubate for 15 minutes at room temperature before injection. […]
# The state of hair re-growth in depilated mice was photographed on days 0, 10, 15, and 20, and hair growth area was analyzed via morphological observation (FIGS. 3A-3D). […]
# β-catenin = assay: Immunostaining of β-catenin in dorsal skin hair follicles ten days after treatment; format: in vivo, C57BL/6 mice; details: day 10; minoxidil: both sides; DP spheroids: compared to the DPs group
compound,measurement,setting,value
"Nc1cc(N2CCCCC2)nc(N)[n+]1[O-] [5% minoxidil, minoxidil]",CD133 expression / staining (in words),CD133,did not alter
same,skin pigmentation,depilated C57BL/6 mice,black pigmentation started to show
same,β-catenin expression / staining (in words),β-catenin,did not alter
